Measurements reported in the supplement of paper PMC10626197.
Where a name gives a salt, the structure may show the parent alone. ± gives the standard deviation of the averaged measurements. Some well-known active drugs show little effect in this data set, so a weak value is uncertain.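 MCF7, a breast cancer cell line, was exposed to pairs of drugs across a grid of doses. Every plate had solvent-only (DMSO) wells as the untreated reference and a doxorubicin series as the total-kill control. No hit threshold is applied to these viability readings.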

Test system: MCF7
Experiment: cell viability relative to DMSO control (raw); higher = more viable cells
Conditions: exposure time 72 h
Experimental: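 MCF7 cells, 1000 cells/well in 384-well plates, treated with 6x6 dose matrices of drug pairs (1:3 serial dilutions, DMSO as lowest dose) for 72 h at 37 °C. Viability read by CellTiter-Glo luminescence, 3 biological replicates. Normalised viability sets 0% at the highest doxorubicin dose and 100% at the 0,0 µM control per combination.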

CC[C@]1(O)C[C@@H]2CN(CCc3c([nH]c4ccccc34)[C@@](C(=O)OC)(c3cc4c(cc3OC)N(C)[C@H]3[C@@](O)(C(=O)OC)[C@H](OC(C)=O)[C@]5(CC)C=CCN6CC[C@]43[C@@H]65)C2)C1 [Vinblastine] + CN(C)CCOc1ccc(/C(=C(/CCCl)c2ccccc2)c2ccccc2)cc1 [Toremifene (citrate)]
cell viability (drug 1 concentration 0.00246914 µM, drug 2 concentration 0 µM): 85 ± 2.6% | cell viability (drug 1 concentration 0.00246914 µM, drug 2 concentration 0.432099 µM): 83.9 ± 3.3% | cell viability (drug 1 concentration 0.00246914 µM, drug 2 concentration 1.2963 µM): 77 ± 15% | cell viability (drug 1 concentration 0.00246914 µM, drug 2 concentration 3.88889 µM): 70.5 ± 8.1% | cell viability (drug 1 concentration 0.00246914 µM, drug 2 concentration 11.6667 µM): 22.7 ± 3.2% | cell viability (drug 1 concentration 0.00246914 µM, drug 2 concentration 35 µM): 0.445 ± 0.042% | cell viability (drug 1 concentration 0.00740741 µM, drug 2 concentration 0 µM): 88.9 ± 5.3% | cell viability (drug 1 concentration 0.00740741 µM, drug 2 concentration 0.432099 µM): 91.3 ± 6.5% | cell viability (drug 1 concentration 0.00740741 µM, drug 2 concentration 1.2963 µM): 91.4 ± 2.7% | cell viability (drug 1 concentration 0.00740741 µM, drug 2 concentration 3.88889 µM): 71.4 ± 9.3% | cell viability (drug 1 concentration 0.00740741 µM, drug 2 concentration 11.6667 µM): 18.3 ± 6.9% | cell viability (drug 1 concentration 0.00740741 µM, drug 2 concentration 35 µM): 0.496 ± 0.05% | cell viability (drug 1 concentration 0.0222222 µM, drug 2 concentration 0 µM): 94.8 ± 2.2% | cell viability (drug 1 concentration 0.0222222 µM, drug 2 concentration 0.432099 µM): 99.8 ± 3.6% | cell viability (drug 1 concentration 0.0222222 µM, drug 2 concentration 1.2963 µM): 93.3 ± 1.9% | cell viability (drug 1 concentration 0.0222222 µM, drug 2 concentration 3.88889 µM): 72 ± 8.1% | cell viability (drug 1 concentration 0.0222222 µM, drug 2 concentration 11.6667 µM): 20.7 ± 6.7% | cell viability (drug 1 concentration 0.0222222 µM, drug 2 concentration 35 µM): 0.449 ± 0.016% | cell viability (drug 1 concentration 0.0666667 µM, drug 2 concentration 0 µM): 88.6 ± 1.8% | cell viability (drug 1 concentration 0.0666667 µM, drug 2 concentration 0.432099 µM): 87.8 ± 4.7% | cell viability (drug 1 concentration 0.0666667 µM, drug 2 concentration 1.2963 µM): 83.5 ± 1.7% | cell viability (drug 1 concentration 0.0666667 µM, drug 2 concentration 3.88889 µM): 54.9 ± 6.7% | cell viability (drug 1 concentration 0.0666667 µM, drug 2 concentration 11.6667 µM): 20 ± 3.6% | cell viability (drug 1 concentration 0.0666667 µM, drug 2 concentration 35 µM): 0.503 ± 0.071% | cell viability (drug 1 concentration 0.2 µM, drug 2 concentration 0 µM): 86.2 ± 3.8% | cell viability (drug 1 concentration 0.2 µM, drug 2 concentration 0.432099 µM): 88.8 ± 8.4% | cell viability (drug 1 concentration 0.2 µM, drug 2 concentration 1.2963 µM): 81.8 ± 7.7% | cell viability (drug 1 concentration 0.2 µM, drug 2 concentration 3.88889 µM): 54.6 ± 4.4% | cell viability (drug 1 concentration 0.2 µM, drug 2 concentration 11.6667 µM): 15.7 ± 1.3% | cell viability (drug 1 concentration 0.2 µM, drug 2 concentration 35 µM): 0.777 ± 0.079%

COc1cc2/c(=N/c3ccc(Br)cc3F)nc[nH]c2cc1OCC1CCN(C)CC1 [Vandetanib] + CNC[C@H](O)c1ccc(O)c(O)c1 [Epinephrine HCl]
cell viability (drug 1 concentration 0.0617284 µM, drug 2 concentration 0 µM): 104 ± 3% | cell viability (drug 1 concentration 0.0617284 µM, drug 2 concentration 0.0740741 µM): 97.6 ± 2.3% | cell viability (drug 1 concentration 0.0617284 µM, drug 2 concentration 0.222222 µM): 102 ± 4.3% | cell viability (drug 1 concentration 0.0617284 µM, drug 2 concentration 0.666667 µM): 103 ± 10% | cell viability (drug 1 concentration 0.0617284 µM, drug 2 concentration 2 µM): 92.9 ± 5% | cell viability (drug 1 concentration 0.0617284 µM, drug 2 concentration 6 µM): 71.8 ± 1.2% | cell viability (drug 1 concentration 0.185185 µM, drug 2 concentration 0 µM): 110 ± 17% | cell viability (drug 1 concentration 0.185185 µM, drug 2 concentration 0.0740741 µM): 104 ± 12% | cell viability (drug 1 concentration 0.185185 µM, drug 2 concentration 0.222222 µM): 113 ± 7.9% | cell viability (drug 1 concentration 0.185185 µM, drug 2 concentration 0.666667 µM): 102 ± 9.4% | cell viability (drug 1 concentration 0.185185 µM, drug 2 concentration 2 µM): 100 ± 15% | cell viability (drug 1 concentration 0.185185 µM, drug 2 concentration 6 µM): 64.4 ± 11% | cell viability (drug 1 concentration 0.555556 µM, drug 2 concentration 0 µM): 108 ± 4.6% | cell viability (drug 1 concentration 0.555556 µM, drug 2 concentration 0.0740741 µM): 104 ± 5.8% | cell viability (drug 1 concentration 0.555556 µM, drug 2 concentration 0.222222 µM): 100 ± 12% | cell viability (drug 1 concentration 0.555556 µM, drug 2 concentration 0.666667 µM): 101 ± 12% | cell viability (drug 1 concentration 0.555556 µM, drug 2 concentration 2 µM): 90.2 ± 8.9% | cell viability (drug 1 concentration 0.555556 µM, drug 2 concentration 6 µM): 68.6 ± 6.6% | cell viability (drug 1 concentration 1.66667 µM, drug 2 concentration 0 µM): 89.78 ± 0.4% | cell viability (drug 1 concentration 1.66667 µM, drug 2 concentration 0.0740741 µM): 92 ± 8.4% | cell viability (drug 1 concentration 1.66667 µM, drug 2 concentration 0.222222 µM): 88.6 ± 3.8% | cell viability (drug 1 concentration 1.66667 µM, drug 2 concentration 0.666667 µM): 88.1 ± 3.8% | cell viability (drug 1 concentration 1.66667 µM, drug 2 concentration 2 µM): 80.5 ± 1.6% | cell viability (drug 1 concentration 1.66667 µM, drug 2 concentration 6 µM): 62 ± 7.5% | cell viability (drug 1 concentration 5 µM, drug 2 concentration 0 µM): 89.7 ± 3.6% | cell viability (drug 1 concentration 5 µM, drug 2 concentration 0.0740741 µM): 94.7 ± 5.6% | cell viability (drug 1 concentration 5 µM, drug 2 concentration 0.222222 µM): 86.6 ± 2.5% | cell viability (drug 1 concentration 5 µM, drug 2 concentration 0.666667 µM): 83.8 ± 5.6% | cell viability (drug 1 concentration 5 µM, drug 2 concentration 2 µM): 78.1 ± 3% | cell viability (drug 1 concentration 5 µM, drug 2 concentration 6 µM): 52 ± 4.7%

CO[C@H]1C(=O)[C@]2(C)[C@@H](OC)C[C@H]3OC[C@@]3(OC(C)=O)[C@H]2[C@H](OC(=O)c2ccccc2)[C@]2(O)C[C@H](OC(=O)[C@H](O)[C@@H](NC(=O)OC(C)(C)C)c3ccccc3)C(C)=C1C2(C)C [Cabazitaxel] + CCCNC(=O)c1cn2ncnc(Nc3cc(C(=O)NC4CC4)ccc3C)c2c1C [BMS-582949 (hydrochloride)]
cell viability (drug 1 concentration 0.0184691 µM, drug 2 concentration 0 µM): 99.6 ± 7.7% | cell viability (drug 1 concentration 0.0184691 µM, drug 2 concentration 0.37037 µM): 100 ± 15% | cell viability (drug 1 concentration 0.0184691 µM, drug 2 concentration 1.11111 µM): 102 ± 7% | cell viability (drug 1 concentration 0.0184691 µM, drug 2 concentration 3.33333 µM): 98.3 ± 8.8% | cell viability (drug 1 concentration 0.0184691 µM, drug 2 concentration 10 µM): 96.6 ± 16% | cell viability (drug 1 concentration 0.0184691 µM, drug 2 concentration 30 µM): 79.8 ± 7.4% | cell viability (drug 1 concentration 0.0554074 µM, drug 2 concentration 0 µM): 110 ± 22% | cell viability (drug 1 concentration 0.0554074 µM, drug 2 concentration 0.37037 µM): 103 ± 17% | cell viability (drug 1 concentration 0.0554074 µM, drug 2 concentration 1.11111 µM): 106 ± 29% | cell viability (drug 1 concentration 0.0554074 µM, drug 2 concentration 3.33333 µM): 106 ± 21% | cell viability (drug 1 concentration 0.0554074 µM, drug 2 concentration 10 µM): 105 ± 27% | cell viability (drug 1 concentration 0.0554074 µM, drug 2 concentration 30 µM): 83.6 ± 14% | cell viability (drug 1 concentration 0.166222 µM, drug 2 concentration 0 µM): 109 ± 20% | cell viability (drug 1 concentration 0.166222 µM, drug 2 concentration 0.37037 µM): 106 ± 24% | cell viability (drug 1 concentration 0.166222 µM, drug 2 concentration 1.11111 µM): 114 ± 20% | cell viability (drug 1 concentration 0.166222 µM, drug 2 concentration 3.33333 µM): 108 ± 20% | cell viability (drug 1 concentration 0.166222 µM, drug 2 concentration 10 µM): 102 ± 20% | cell viability (drug 1 concentration 0.166222 µM, drug 2 concentration 30 µM): 87.1 ± 17% | cell viability (drug 1 concentration 0.498667 µM, drug 2 concentration 0 µM): 107 ± 23% | cell viability (drug 1 concentration 0.498667 µM, drug 2 concentration 0.37037 µM): 106 ± 14% | cell viability (drug 1 concentration 0.498667 µM, drug 2 concentration 1.11111 µM): 105 ± 18% | cell viability (drug 1 concentration 0.498667 µM, drug 2 concentration 3.33333 µM): 105 ± 24% | cell viability (drug 1 concentration 0.498667 µM, drug 2 concentration 10 µM): 99.8 ± 15% | cell viability (drug 1 concentration 0.498667 µM, drug 2 concentration 30 µM): 84.4 ± 11% | cell viability (drug 1 concentration 1.496 µM, drug 2 concentration 0 µM): 107 ± 14% | cell viability (drug 1 concentration 1.496 µM, drug 2 concentration 0.37037 µM): 108 ± 19% | cell viability (drug 1 concentration 1.496 µM, drug 2 concentration 1.11111 µM): 102 ± 16% | cell viability (drug 1 concentration 1.496 µM, drug 2 concentration 3.33333 µM): 105 ± 21% | cell viability (drug 1 concentration 1.496 µM, drug 2 concentration 10 µM): 96 ± 17% | cell viability (drug 1 concentration 1.496 µM, drug 2 concentration 30 µM): 82.8 ± 14%
